pIC50: −log10 of the molar value. At least one structure is not confirmed: it was looked up by name or label, or the drawing left a doubt. Some of these results come from one statement about several compounds together.
What was measured:
Assay type in all cases: cell-based
SW480 colon cancer cells = assay: hexoseaminidase cell proliferation assay, SW480
Text: (§1) Using hexoseaminidase assay, we determined the effect of the compounds on cell proliferation. […]
(§2) Using hexoseaminidase assay, we determined the effect of the compounds on cell proliferation. […] […] […] Overall, the analogs can be used as chemotherapeutic agents against colon and pancreatic cancer.

[1] = tested on: MiaPaCa-2 pancreatic cancer cells; assay: hexoseaminidase cell proliferation assay, MiaPaCa-2; details: MiaPaCa-2, 48 h
Protocol: (§3) Using hexoseaminidase assay, we determined the effect of the compounds on cell proliferation. […] The IC50 value at 48 hours is below 10 μM in all the cancer cell lines.
(§4) Using hexoseaminidase assay, we determined the effect of the compounds on cell proliferation. […] The MRL16 IC50 value at 48 hours is below 0.3 μM in Colon cancer cell lines. […] Overall, the analogs can be used as chemotherapeutic agents against colon and pancreatic cancer.

[2] = tested on: 253JBV bladder cancer cells; assay: hexoseaminidase cell proliferation assay, 253JBV; details: 24 h
Protocol: as §3

[3] = tested on: HCT116 colon cancer cells; assay: hexoseaminidase cell proliferation assay, HCT116
Text: as §1, §2

[4] = tested on: colon, pancreatic and bladder cancer cells; assay: hexoseaminidase cell proliferation assay, summaries over cell lines; details: 48 h, all the colon
Protocol: Water solubility studies were performed with the CD/analog complexes. […] The observed IC50 value of THBCD at 48 h is below 10 μM in all the colon, pancreatic and bladder cancer cells.
as §3, §4

[5] = tested on: PanC-1 pancreatic cancer cells; assay: hexoseaminidase cell proliferation assay, PanC-1; details: PanC-1, 48 h
Protocol: as §3, §4

Question: How did the pIC50 (SW480 colon cancer cells; SW480, 48 h) turn out when `O=C(N/N=C/c1ccc(O)c(O)c1O)c1cc2ccccc2cc1O` [MRL THB] was run?
Answer: The pIC50 was 4.30.

Question: And the pIC50 [1]?
Answer: Its pIC50 is 4.30.

Question: And the pIC50 [2]?
Answer: Its pIC50 is 4.30.

Question: What does the source list for `O=C(N/N=C/c1ccc(O)c(O)c1)c1cc2ccccc2cc1O` [MRL DHB]?
Answer: pIC50 (SW480 colon cancer cells; SW480, 72 h): 4.30; pIC50 [1]: 4.30; pIC50 ([3]; HCT116, 72 h): 4.30

Question: How did the pIC50 (SW480 colon cancer cells; SW480, 24 h) turn out when `O=C(N/N=C/c1cc(F)cc(F)c1)c1cc2ccccc2cc1O` [MRL RFB] was run?
Answer: Its pIC50 is 4.30.

Question: What about the pIC50 ([3]; HCT116, 24 h) of the same compound?
Answer: Its pIC50 is 4.30.

Question: With `O=C(N/N=C/c1ccc2ccccc2c1O)c1cc2ccccc2cc1O` [NAL] as the compound, how does the pIC50 [4] read?
Answer: The pIC50 was greater than 5.00.

Question: With `O=C(N/N=C/c1ccc(F)c(F)c1)c1cc2ccccc2cc1O` [MRL DFB] as the compound, how does the pIC50 [5] read?
Answer: Its pIC50 is 4.30.

From patent US20200102264A1, “MARMELIN ANALOGS AND METHODS OF USE IN CANCER TREATMENT” (THE UNIVERSITY OF KANSAS, priority 2014, published 2020)
